Experimental data from patent US20240082208A1 (priority 2021, published 2024).
At least one structure is not confirmed: it was looked up by name or label, or the drawing left a doubt.

Key:
Ifnb1, Mx1 and Mx2 mRNA = assay: mRNA expression of type 1 interferon and antiviral genes in mouse liver by real-time qPCR; assay type: in vivo, C57BL/6 mice; conditions: 10 mg/kg orally once a day for 2 weeks, normalized to Gapdh, vs vehicle
dengue virus = assay: In vitro dengue virus infection of Vero cells, viral RNA titer by qRT-PCR; assay type: cell-based; conditions: Vero cells, 0, 20 or 40 μM, 48 hours after infection, cell culture medium, vs vehicle
Method: In order to evaluate the antiviral effect of irosustat in vitro, an additional experiment was performed in which Vero cells were infected with dengue virus. 16 hours before viral infection, cells were pre-treated with irosustat at a concentration of 0 μM, 20 μM or 40 μM, and 1 hour thereafter, the medium was replaced with a cell culture medium containing the drug. 48 hours after infection with the virus, the viral RNA titer of dengue virus in the cell culture medium was measured through qRT-PCR, and the results are shown in FIG. 3.

[1] = system: severe acute respiratory syndrome virus (SARS; SARS-CoV-2); parameters: species or system K18-ACE2 TG mice; conditions: mouse, in vivo

## NS(=O)(=O)Oc1ccc2c3c(c(=O)oc2c1)CCCCC3 [irosustat, (6-oxo-8,9,10,11-tetrahydro-7H-cyclohepta[c]chromen-3-yl)sulfamate]
Ifnb1, Mx1 and Mx2 mRNA
  mRNA expression level of Ifnb 1 (interferon beta 1): increased
  mRNA expression level of Mx1 gene: increased
  mRNA expression level of Mx2 gene: increased
Dengue virus
  viral RNA titer of dengue virus, concentration dependence: decreased in a manner dependent on the concentration of irosustat
[1]
  edema score in the lung tissue: low
  inflammation score in the lung tissue: low
  number of inflammatory cells in the lung tissue: significantly decreased
